This is an account of results in PMC8087827.

The target of assay [1] is T1, Arabidopsis MEA fused to cYFP (cYFP-AtMEA) (Arabidopsis thaliana) (UniProt O65312).
T1 sequence: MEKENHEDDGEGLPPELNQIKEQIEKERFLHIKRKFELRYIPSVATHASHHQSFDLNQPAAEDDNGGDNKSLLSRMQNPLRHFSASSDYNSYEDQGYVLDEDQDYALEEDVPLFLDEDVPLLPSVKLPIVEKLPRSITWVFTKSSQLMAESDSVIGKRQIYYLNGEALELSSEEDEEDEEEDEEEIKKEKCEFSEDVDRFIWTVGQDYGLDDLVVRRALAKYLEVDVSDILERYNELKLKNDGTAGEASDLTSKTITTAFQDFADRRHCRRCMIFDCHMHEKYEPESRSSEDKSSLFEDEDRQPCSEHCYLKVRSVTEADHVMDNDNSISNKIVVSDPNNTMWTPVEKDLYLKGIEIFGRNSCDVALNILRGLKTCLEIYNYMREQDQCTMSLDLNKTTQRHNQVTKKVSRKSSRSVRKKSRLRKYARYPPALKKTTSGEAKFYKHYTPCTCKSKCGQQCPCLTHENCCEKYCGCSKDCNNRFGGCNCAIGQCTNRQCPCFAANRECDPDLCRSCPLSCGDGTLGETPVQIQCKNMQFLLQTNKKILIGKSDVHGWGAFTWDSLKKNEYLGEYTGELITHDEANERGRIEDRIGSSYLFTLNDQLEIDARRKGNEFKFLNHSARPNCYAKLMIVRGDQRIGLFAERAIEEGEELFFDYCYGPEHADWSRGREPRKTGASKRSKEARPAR
Briefly: split reporter; BiFC in N. benthamiana leaves agroinfiltrated with the two constructs (1:1 w/w) and PDLP5-CFP as PD marker; confocal images 48 h after agroinfiltration.

Assay [2] addresses T2, Arabidopsis receptor-like kinase BAM1 fused to nYFP (BAM1-nYFP) (Arabidopsis thaliana) (UniProt O49545).
T2 sequence: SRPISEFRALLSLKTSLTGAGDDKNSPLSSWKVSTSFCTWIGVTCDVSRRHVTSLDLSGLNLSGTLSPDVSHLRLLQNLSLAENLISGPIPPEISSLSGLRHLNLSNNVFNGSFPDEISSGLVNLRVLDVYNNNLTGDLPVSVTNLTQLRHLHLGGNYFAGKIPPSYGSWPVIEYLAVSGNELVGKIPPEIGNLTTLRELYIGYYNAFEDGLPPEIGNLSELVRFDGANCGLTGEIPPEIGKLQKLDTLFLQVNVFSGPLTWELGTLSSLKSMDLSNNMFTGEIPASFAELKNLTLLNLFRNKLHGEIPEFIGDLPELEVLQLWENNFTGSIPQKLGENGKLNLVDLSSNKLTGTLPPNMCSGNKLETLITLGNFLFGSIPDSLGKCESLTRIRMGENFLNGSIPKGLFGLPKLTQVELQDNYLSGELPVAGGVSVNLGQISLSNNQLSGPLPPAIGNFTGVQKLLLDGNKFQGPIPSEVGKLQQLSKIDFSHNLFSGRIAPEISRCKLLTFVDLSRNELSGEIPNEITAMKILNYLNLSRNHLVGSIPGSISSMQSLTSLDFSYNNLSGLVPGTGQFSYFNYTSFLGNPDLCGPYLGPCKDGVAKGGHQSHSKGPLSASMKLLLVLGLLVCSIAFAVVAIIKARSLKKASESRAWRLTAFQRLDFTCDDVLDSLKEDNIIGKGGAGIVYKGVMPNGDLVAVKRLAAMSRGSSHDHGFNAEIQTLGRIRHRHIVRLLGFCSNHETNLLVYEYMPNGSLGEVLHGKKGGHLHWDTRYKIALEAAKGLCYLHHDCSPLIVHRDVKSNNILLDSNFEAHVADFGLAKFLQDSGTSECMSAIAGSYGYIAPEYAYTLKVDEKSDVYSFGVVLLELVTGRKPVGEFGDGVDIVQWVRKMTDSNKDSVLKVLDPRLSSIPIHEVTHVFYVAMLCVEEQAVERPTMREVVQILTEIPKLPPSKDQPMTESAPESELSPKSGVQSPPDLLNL
Described as above.

Assay [3] addresses T3, BAM1-Cub (Arabidopsis thaliana) (UniProt O49545).
T3 sequence: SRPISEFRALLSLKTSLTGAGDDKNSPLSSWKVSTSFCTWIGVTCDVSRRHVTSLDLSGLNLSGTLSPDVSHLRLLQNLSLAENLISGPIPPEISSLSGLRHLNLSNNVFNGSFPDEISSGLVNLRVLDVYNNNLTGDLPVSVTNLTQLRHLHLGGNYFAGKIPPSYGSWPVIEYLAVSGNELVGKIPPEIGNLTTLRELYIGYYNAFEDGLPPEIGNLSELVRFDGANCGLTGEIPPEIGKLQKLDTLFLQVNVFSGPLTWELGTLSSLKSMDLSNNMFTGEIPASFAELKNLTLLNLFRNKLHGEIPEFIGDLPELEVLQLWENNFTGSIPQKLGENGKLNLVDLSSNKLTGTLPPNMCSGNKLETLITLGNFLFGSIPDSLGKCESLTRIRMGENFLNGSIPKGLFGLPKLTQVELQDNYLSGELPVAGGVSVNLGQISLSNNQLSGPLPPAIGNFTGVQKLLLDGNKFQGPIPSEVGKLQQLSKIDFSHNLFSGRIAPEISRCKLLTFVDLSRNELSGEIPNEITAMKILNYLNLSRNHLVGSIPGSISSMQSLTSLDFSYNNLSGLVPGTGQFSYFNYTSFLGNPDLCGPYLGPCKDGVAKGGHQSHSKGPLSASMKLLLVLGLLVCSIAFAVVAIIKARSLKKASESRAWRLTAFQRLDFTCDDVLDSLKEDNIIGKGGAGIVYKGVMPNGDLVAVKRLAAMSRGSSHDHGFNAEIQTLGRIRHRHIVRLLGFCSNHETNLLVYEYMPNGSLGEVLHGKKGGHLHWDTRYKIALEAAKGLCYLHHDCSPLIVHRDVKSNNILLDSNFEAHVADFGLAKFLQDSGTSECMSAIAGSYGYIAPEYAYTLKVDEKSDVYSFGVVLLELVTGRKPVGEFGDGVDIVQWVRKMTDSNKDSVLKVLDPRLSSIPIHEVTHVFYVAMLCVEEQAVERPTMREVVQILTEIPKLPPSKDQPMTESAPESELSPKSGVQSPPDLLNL
Briefly: two-hybrid; membrane-based split-ubiquitin Y2H, yeast L40; Cub fusions with NubG fusions; growth on SD without leucine, tryptophan and histidine, with 10 mM 3AT and 0.3 mM methionine.

These are yes or no findings as the source states them, for the method shown. For part of these data: Binding seen in cells or lysates may run through a third protein. Some entries that bind do so weakly or less than the wild type. Tags and fused reporters may be left off the sequences shown.

B1: Arabidopsis FIE fused to nYFP (nYFP-AtFIE) (protein, UniProt Q9LT47 1-369)
chain: MSKITLGNESIVGSLTPSNKKSYKVTNRIQEGKKPLYAVVFNFLDARFFDVFVTAGGNRITLYNCLGDGAISALQSYADEDKEESFYTVSWACGVNGNPYVAAGGVKGIIRVIDVNSETIHKSLVGHGDSVNEIRTQPLKPQLVITASKDESVRLWNVETGICILIFAGAGGHRYEVLSVDFHPSDIYRFASCGMDTTIKIWSMKEFWTYVEKSFTWTDDPSKFPTKFVQFPVFTASIHTNYVDCNRWFGDFILSKSVDNEILLWEPQLKENSPGEGASDVLLRYPVPMCDIWFIKFSCDLHLSSVAIGNQEGKVYVWDLKSCPPVLITKLSHNQSKSVIRQTAMSVDGSTILACCEDGTIWRWDVITK
B1: in assay [1], the binding entry is reported as “binds”.

B2: TMV coat protein (CP), BiFC construct (protein, UniProt P69687 1-159)
chain: MSYSITTPSQFVFLSSAWADPIELINLCTNALGNQFQTQQARTVVQRQFSEVWKPSPQVTVRFPDSDFKVYRYNAVLDPLVTALLGAFDTRNRIIEVENQANPTTAETLDATRRVDDATVAIRSAINNLIVELIRGTGSYNRSSFESSSGLVWTSGPAT
As for B2, the binding entry in assay [2] is “no binding”.

B3: TMV CP fused to NubG (protein, UniProt P69687 1-159)
chain: MSYSITTPSQFVFLSSAWADPIELINLCTNALGNQFQTQQARTVVQRQFSEVWKPSPQVTVRFPDSDFKVYRYNAVLDPLVTALLGAFDTRNRIIEVENQANPTTAETLDATRRVDDATVAIRSAINNLIVELIRGTGSYNRSSFESSSGLVWTSGPAT
With B3, in assay [3], the binding entry is “no binding”.
